Among all 360,000 compounds or so, about 690 (0.19%) were called active. Inconclusive means that the source gave no clear call. Such entries were picked first, then a sample of the others.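 Rule for the calls: active = fluorescence ratio to DMSO below 75%, the collection mean minus 3 SD; inconclusive = too few cells collected in the well; inactive = the rest.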
Target: ATP-binding cassette sub-family B member 6 (Homo sapiens) (UniProt Q9NP58)
Test: blockers of ABCB6-driven porphyrin uptake – K562-ABCB6 cells, flow cytometry, MLPCN library, primary screen (AID 602162);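 for fluorescence ratio to DMSO: signal is porphyrin accumulated inside mitochondria; 100% equals median channel fluorescence of DMSO control wells; lower ratio means ABCB6 inhibition with less porphyrin fluorescence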
Details: K562-ABCB6 porphyrin accumulation, 1 h; at 10 µM, active compounds read low

Amino acid sequences for entries named in this document (tags omitted).
UniProt Q9NP58, whole entry, looked up: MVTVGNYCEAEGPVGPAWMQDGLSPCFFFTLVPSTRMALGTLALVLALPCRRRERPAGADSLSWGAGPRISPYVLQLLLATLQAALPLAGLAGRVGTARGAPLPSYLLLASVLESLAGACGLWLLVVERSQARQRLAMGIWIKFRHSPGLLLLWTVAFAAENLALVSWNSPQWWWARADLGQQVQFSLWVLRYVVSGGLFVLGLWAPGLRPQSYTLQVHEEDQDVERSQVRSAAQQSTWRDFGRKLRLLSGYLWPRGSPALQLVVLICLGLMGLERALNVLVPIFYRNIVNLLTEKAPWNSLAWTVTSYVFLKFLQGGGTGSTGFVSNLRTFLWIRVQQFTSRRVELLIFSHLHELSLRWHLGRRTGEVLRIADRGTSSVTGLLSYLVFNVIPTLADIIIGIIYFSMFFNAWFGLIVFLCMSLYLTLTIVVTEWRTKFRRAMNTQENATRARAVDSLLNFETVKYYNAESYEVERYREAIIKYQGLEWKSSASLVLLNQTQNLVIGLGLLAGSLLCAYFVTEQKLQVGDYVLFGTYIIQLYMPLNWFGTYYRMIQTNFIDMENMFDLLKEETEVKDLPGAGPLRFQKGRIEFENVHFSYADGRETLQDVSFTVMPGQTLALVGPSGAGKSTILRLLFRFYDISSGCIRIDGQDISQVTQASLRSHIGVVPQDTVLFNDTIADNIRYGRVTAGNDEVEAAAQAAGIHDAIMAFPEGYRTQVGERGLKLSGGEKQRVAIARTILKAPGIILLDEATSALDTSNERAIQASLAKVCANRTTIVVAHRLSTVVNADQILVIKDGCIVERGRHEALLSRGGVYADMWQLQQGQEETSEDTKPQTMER

SMILES	fluorescence ratio to DMSO
Cc1nn(-c2ccccc2)c(C)c1C(=O)OCC(=O)N1CC(=O)Nc2ccccc21	inconclusive
CCCC(=O)Nc1ccc2c(c1)Cc1ccccc1-2	active: 73%
CCCCn1c(N)c(N2CCOCC2)c(=O)n(CC(=O)NC(C)c2ccccc2)c1=O (configuration not stated)	inconclusive
Cc1oc(-c2ccccc2F)nc1CS(=O)(=O)CC(=O)NCCCN1CCc2ccccc2C1	inactive: 101%
O=S(=O)(c1ccccc1)n1cc(-c2cccc3nccn23)c2ccccc21	inconclusive
COc1cccc(C(O)c2ncc(-c3cccc(C(F)(F)F)c3)[nH]2)c1 (configuration not stated)	inconclusive
Cc1ccc(-n2c(C)nnc2SCC(=O)N(C)C2CCS(=O)(=O)C2)cc1 (configuration not stated)	inactive: 93%
CC(C)(C)C(=O)NCCc1nc2ccccc2n1CC(=O)c1ccccc1	inconclusive
COc1ccc(NC2c3ccccc3C(=O)N2Cc2ccco2)cc1OC (configuration not stated)	inconclusive
O=C1c2ccccc2-c2c1c1ccccc1c(=O)n2-c1ccccc1	inconclusive
CCN(c1ccc(OC)cc1)S(=O)(=O)c1ccc2c(c1)CC(C)N2C(=O)C1CC1 (configuration not stated)	inactive: 100%
Cn1cc(S(=O)(=O)CC(=O)N2CCCc3ccccc32)c2ccccc21	inconclusive
CCOC(=O)[C@@H]1[C@H]2COc3ccc(Br)cc3[C@@H]2N2C(=O)N(c3ccc(C)cc3)C(=O)[C@@]12C	inconclusive
COc1cc(C(=O)NC(=S)Nc2ccccc2N2CCCC2)cc(OC)c1OC	inactive: 96%
CC(OC(=O)CN1C(=O)c2ccccc2C1=O)C(=O)NC1(C#N)CCCCC1 (configuration not stated)	inconclusive
Cc1ccccc1CSCCNS(C)(=O)=O	active: 44%
O=C(COc1ccc(-c2ccccc2)cc1)NNC(=O)Nc1ccccc1	inconclusive
O=[N+]([O-])c1ccc(OCn2cncn2)cc1	inactive: 90%
Cc1ccc2nc(N3CCN(c4ccccc4F)CC3)c(C=O)c(=O)n2c1	inconclusive
Cc1nc2c(oc3ccccc32)c(=O)o1	inactive: 99%
Cc1nn(C2CCS(=O)(=O)C2)c(Cl)c1/C=C/C(=O)OCC(=O)c1cc(C)n(-c2ccc(F)cc2)c1C (configuration not stated)	inconclusive
O=C(O)c1ccc(CSCc2ccco2)cc1	active: 74%
Cc1nnc(SCCn2c(N3CCCC(C)C3)nc3c2c(=O)[nH]c(=O)n3C)s1 (configuration not stated)	inactive: 97%
CCOC(=O)C(CC)Sc1nc2c(cnn2-c2ccccc2)c(=O)[nH]1 (configuration not stated)	inconclusive
CCCCCn1c(CCCNC(=O)CC)nc2ccccc21	inconclusive

SMILES	fluorescence ratio to DMSO
COCc1nnc(NC(=O)c2c(-c3c(Cl)cccc3Cl)noc2C)s1	active: 67%
O=C(N[C@@H](Cc1ccc(Br)cc1)C(=O)O)OCC1c2ccccc2-c2ccccc21	inconclusive
CCc1ccc(OCC(=O)Nc2ccc(-c3cc4ccccc4oc3=O)c(OC)c2)cc1	inactive: 105%
CCC(C)c1ccccc1N1CC(C(=O)Nc2ccc(N3CCOCC3)cc2)CC1=O (configuration not stated)	inconclusive
CC12CCC(C)(c3nc4ccccc4nc31)C2(C)C	inconclusive
Cc1ccc(S(=O)(=O)N2CCN(C(=O)COC(=O)COc3cccc(C(F)(F)F)c3)CC2)c(C)c1	inconclusive
CC1CCN(S(=O)(=O)c2ccc3c(c2)C(=NO)c2cc(S(=O)(=O)N4CCC(C)CC4)ccc2-3)CC1	active: 70%
O=c1c2c(-c3cccs3)csc2ncn1-c1ccccc1	active: 47%
N/C(Cn1cncn1)=N\NC(=O)C(=O)Nc1cccc(C(F)(F)F)c1	inconclusive
O=[N+]([O-])c1cc(/C=N/OCc2c(Cl)cccc2Cl)ccc1N1CCOCC1	active: 54%
Cc1cc2ccccc2n1CCNC(=O)C(C)(C)C	inconclusive
O=C(Nc1ccccc1Br)C1CC(=O)N(c2ccc3c4c(cccc24)CC3)C1 (configuration not stated)	inactive: 96%
O=C(CN1C(=O)NC2(CCCC2)C1=O)N1CCN(c2ccc(C(F)(F)F)cc2[N+](=O)[O-])CC1	inconclusive
Cc1ccc(NC(=O)CSc2nncs2)cc1Cl	inconclusive
CN(C)c1ccc(-c2cccc3nccn23)cc1	inconclusive
Cc1csc2c(N3CCN(C(=O)NC(C)(C)C)CC3)ncnc12	inconclusive
c1ccc2nc3c(nc2c1)CCc1nonc1-3	inactive: 95%
COc1ccccc1N1CC(C(=O)OCc2nc(N)nc(Nc3ccccc3)n2)CC1=O (configuration not stated)	inconclusive
Cc1ccc2[nH]c(=O)c(CN(Cc3cccs3)Cc3nnnn3Cc3ccccc3)cc2c1	active: 40%
Cc1nc(-c2cccc(NC(=O)c3ccc(-n4cccn4)cc3)c2)cs1	inactive: 93%
COc1ccc([C@H]2CC(=O)C=C(c3ccc(C)cc3)C2)cc1	inconclusive
CC(C)c1ccc(C2NC(=S)NC3=C2C(=O)CCC3)cc1 (configuration not stated)	active: 69%
Cc1ccc(O)c(NC2=C(Cl)C(=O)N(Cc3ccccc3)C2=O)c1	active: 74%
CSc1ccccc1C(=O)Nc1cccc(N(C)S(C)(=O)=O)c1	inconclusive
CC(Sc1nnc(-c2ccncc2)n1C)C(=O)Nc1ccc(N2CCOCC2)cc1 (configuration not stated)	active: 69%

Some of the entries so far, with bars between the fields:
SMILES | fluorescence ratio to DMSO
CCCCCn1c(CCCNC(=O)CC)nc2ccccc21 | inconclusive
COCc1nnc(NC(=O)c2c(-c3c(Cl)cccc3Cl)noc2C)s1 | active: 67%
O=C(N[C@@H](Cc1ccc(Br)cc1)C(=O)O)OCC1c2ccccc2-c2ccccc21 | inconclusive
CCc1ccc(OCC(=O)Nc2ccc(-c3cc4ccccc4oc3=O)c(OC)c2)cc1 | inactive: 105%
CCC(C)c1ccccc1N1CC(C(=O)Nc2ccc(N3CCOCC3)cc2)CC1=O (configuration not stated) | inconclusive
CC12CCC(C)(c3nc4ccccc4nc31)C2(C)C | inconclusive
Cc1ccc(S(=O)(=O)N2CCN(C(=O)COC(=O)COc3cccc(C(F)(F)F)c3)CC2)c(C)c1 | inconclusive
CC1CCN(S(=O)(=O)c2ccc3c(c2)C(=NO)c2cc(S(=O)(=O)N4CCC(C)CC4)ccc2-3)CC1 | active: 70%
O=c1c2c(-c3cccs3)csc2ncn1-c1ccccc1 | active: 47%
N/C(Cn1cncn1)=N\NC(=O)C(=O)Nc1cccc(C(F)(F)F)c1 | inconclusive
O=[N+]([O-])c1cc(/C=N/OCc2c(Cl)cccc2Cl)ccc1N1CCOCC1 | active: 54%
Cc1cc2ccccc2n1CCNC(=O)C(C)(C)C | inconclusive
O=C(Nc1ccccc1Br)C1CC(=O)N(c2ccc3c4c(cccc24)CC3)C1 (configuration not stated) | inactive: 96%
O=C(CN1C(=O)NC2(CCCC2)C1=O)N1CCN(c2ccc(C(F)(F)F)cc2[N+](=O)[O-])CC1 | inconclusive
Cc1ccc(NC(=O)CSc2nncs2)cc1Cl | inconclusive
CN(C)c1ccc(-c2cccc3nccn23)cc1 | inconclusive
Cc1csc2c(N3CCN(C(=O)NC(C)(C)C)CC3)ncnc12 | inconclusive
c1ccc2nc3c(nc2c1)CCc1nonc1-3 | inactive: 95%
COc1ccccc1N1CC(C(=O)OCc2nc(N)nc(Nc3ccccc3)n2)CC1=O (configuration not stated) | inconclusive
Cc1ccc2[nH]c(=O)c(CN(Cc3cccs3)Cc3nnnn3Cc3ccccc3)cc2c1 | active: 40%
Cc1nc(-c2cccc(NC(=O)c3ccc(-n4cccn4)cc3)c2)cs1 | inactive: 93%
COc1ccc([C@H]2CC(=O)C=C(c3ccc(C)cc3)C2)cc1 | inconclusive

Next part:

SMILES	fluorescence ratio to DMSO
Cc1cccc(CSC2=NN3CCCC(=O)N=C3S2)c1	inconclusive
Cn1cnc2c1c(=O)n(CC(O)CO)c(=O)n2C (configuration not stated)	inconclusive
CC1Cc2ccccc2N1C(=O)CNc1cccc(S(=O)(=O)N2CCCC2)c1 (configuration not stated)	inconclusive
Cn1cccc1CC(=O)N/N=C\c1c2ccccc2cc2ccccc12	active: 73%
CC(C)C[C@@H](COCc1ccc(C(F)(F)F)cc1)N1CCN(C(=O)c2ccc(C(F)(F)F)cc2)CCC1=O	inconclusive
O=C(OC1CCOC1=O)c1ccc2ncsc2c1 (configuration not stated)	inconclusive
CCn1c(SCC(=O)Nc2nc3ccc(OC)cc3s2)nc2c1c(=O)n(C)c(=O)n2C	active: 72%
COCCNC(=O)Cn1ncc2ccsc2c1=O	inconclusive
O=C(ONC1=NCCCCC1)c1ccc([N+](=O)[O-])cc1	inconclusive
Cc1c(CN2CCC(Oc3ccc(C(=O)N4CCCCC4)cc3)CC2)cnn1C	inconclusive
Cc1ccc(C)c(N2CCN(C(=O)CCC(=O)N3CCOc4ccc(Cl)cc43)CC2)c1	inconclusive
CCN(c1ccccc1)S(=O)(=O)c1ccc(C(=O)N2CCCC(C(F)(F)F)C2)cc1 (configuration not stated)	inconclusive
CCOC(=O)C1CCN(Cc2ccc(F)c(Br)c2)CC1	active: 69%
COc1cc(OC)cc(-c2c(-c3ccc(F)cc3)c3cc(-c4ccc(SC)cc4)ccc3n2C)c1	inconclusive
Cc1ccc(NC(=O)CSc2ccc3nnc(-c4cccnc4)n3n2)cc1	inactive: 97%
CCS(=O)(=O)c1ncc(Cl)c(C(=O)Nc2ccccc2OC)n1	active: 69%
Cc1ccc(S(=O)(=O)NCC(=O)NNC(=O)c2ccc(Br)cc2)cc1C	inconclusive
CCCn1c(SCC(=O)Nc2ccccc2Cl)nc(O)cc1=O	inconclusive
CCOC(=O)c1ccc(S(=O)(=O)Nc2cc(C(C)(C)C)no2)cc1	active: 66%
Cn1nc(CC(=O)Nc2ccc(N3CCN(C(=O)OC(C)(C)C)CC3)cc2)c2ccccc2c1=O	active: 30%
Nc1cc(Cl)nc(N/N=C/c2c(O)ccc3ccccc23)n1	inconclusive
O=C(CCl)Nc1cccc(Oc2cnccn2)c1	active: 7%
CCOC(=O)c1c(C)nn(-c2ccc(NC(=O)CSCC(=O)O)cc2)c1C	inconclusive
Cc1ccc(NC(=O)CN(C)C(=O)c2cccc(Br)c2)cc1	inactive: 104%
COC(=O)N1C(=O)[C@](c2ccc(Cl)cc2)(C(C)C)N1C(=O)OC	inactive: 96%

SMILES	fluorescence ratio to DMSO
COc1ccccc1OCCn1cc(C(=O)c2ccco2)c2ccccc21	inconclusive
CC1(C)CC(=O)C=C(Nc2cc(-c3ccccc3)[nH]n2)C1	active: 47%
CCOC(=O)C1Nc2ccccc2C2C(O)C(O)CC12 (configuration not stated)	inactive: 154%
COc1ccc(NC(=O)c2cccc(S(=O)(=O)N3CCCCC3)c2)c(OC)c1	active: 13%
COc1cc(COCC(O)CN2CCN(Cc3ccc4c(c3)OCO4)CC2)cc(OC)c1OC (configuration not stated)	inconclusive
OC(COc1ccc(Br)cc1)Cn1ccnc1 (configuration not stated)	active: 74%
Cc1cccc(NC(=S)NC(NC(=O)OCc2ccccc2)C(Cl)(Cl)Cl)c1 (configuration not stated)	inactive: 102%
O=C(NCc1ccc(Cl)cc1)c1cccc(NC2=NC3CS(=O)(=O)CC3S2)c1 (configuration not stated)	inactive: 98%
CC(C)Cn1c(CN(Cc2ccccc2)Cc2ccccc2)nc2c1c(=O)n(C)c(=O)n2C	inconclusive
O=[N+]([O-])c1cccc(NC(=S)N2CCc3ccccc32)c1	inactive: 103%
CC(=O)c1ccc(S(=O)(=O)NCc2cccnc2)cc1	active: 73%
N#CCCN(C(=O)COC(=O)CCc1nc2ccccc2c(=O)[nH]1)c1ccc(F)cc1	inconclusive
Cc1c(C)c2ccc(OCC(=O)NCCc3c[nH]c4ccccc34)cc2oc1=O	inconclusive
COc1ccc(N(CC(=O)NCc2ccco2)S(=O)(=O)c2c(C)nn(C)c2C)cc1	inconclusive
CC1(C)CC(=O)C2=C(C1)c1c(ccc3ccccc13)NC2c1cc([N+](=O)[O-])cc([N+](=O)[O-])c1O (configuration not stated)	inactive: 100%
Nc1nc(NC(=O)c2cccnc2)nn1-c1ccccc1	inconclusive
CCCCC(=O)Nc1cccc(NC(=S)NC(=O)COc2ccccc2Cl)c1	inactive: 99%
Oc1c(Br)cc(Br)cc1C=Nc1ccc2c(c1)OCO2	inactive: 93%
CC(Oc1ccc2c(-c3ccccc3)cc(=O)oc2c1)C(=O)NCc1ccccn1 (configuration not stated)	inconclusive
O=Nc1[nH]c(=O)c(/C=C(\O)c2ccccc2)nc1NO	inconclusive
CC(=O)Nc1ccc(S(=O)(=O)Nc2nc3ccccc3nc2N2CCCC2)cc1	inactive: 92%
CCCCc1c(-c2ccc(F)cc2F)ncn1CCc1ccccc1OC	inconclusive
